Data as given in EP2392597B1.
Changes are numbered by the printed parent chain. These are yes or no findings as the source states them, for the method shown. Some results given as binding are weak or reduced against the parent protein; the word gives no strength.

By UniProt entry, the sequences of proteins in these tests, tags left out. Where a name states a change or a piece, a line headed by the entry shows the natural chain unless it says otherwise.
UniProt Q9NPF7: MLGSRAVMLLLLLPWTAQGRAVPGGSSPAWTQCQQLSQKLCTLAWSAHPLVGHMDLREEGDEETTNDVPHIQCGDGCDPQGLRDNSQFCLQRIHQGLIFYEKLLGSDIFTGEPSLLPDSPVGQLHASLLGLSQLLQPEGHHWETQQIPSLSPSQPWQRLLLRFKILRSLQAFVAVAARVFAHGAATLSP

B1: anti-IL-23p19 Fab/scFv cluster 146 (Fab, V domains shown)
VH: EVQLLESGGGLVQPGGSLRLSCAASGFTFSMYRMMWVRQAPGKGLEWVSSIRPSGGMTMYADSVKGRFTISRDNSKNTLYLQMNSLRAEDTAVYYCTRGWALFGVVRMGDYWGQGTLVTVSS
VL: QSELTQPASVSGSPGQSITISCSGTSSDVGGHNFVSWYQERPGKVPKLIIYDVNNRPSGISSRFSGSKSGNTASLTISGLQAEDEADYFCNSYTITGTYVFGTGTKVTVL
B2: anti-IL-23p19 Fab/scFv cluster 148 (Fab, V domains shown)
VH: EVQLLESGGGLVQPGGSLRLSCAASGFTFSNYSMSWVRQAPGKGLEWVSSIRSSGGRTDYADSVKGRFTISRDNSKNTLYLQMNSLRAEDTAVYYCATGIAVARYWGQGTLVTVSS
VL: DIQMTQSPGTLSLSPGERATLSCRASQSVSSYLAWYQQKPGQAPRLLIYGASNRATGIPARFSGSGSGTDFTLTISSLEPEDFAVYFCQQYASPPRTFGQGTKLEMK
B3: anti-IL-23p19 Fab/scFv cluster 149 (Fab, V domains shown)
VH: B2 VH
VL: DIQMTQSPGTLSVFPGERATLSCRASQNIGINLAWYQQKPGQTPRLLIYGASSRATGIPARFSGSGSGTEFALTISSMQSEDFAVYFCQQYHRWPPLTFGGGTKVEIK
B4: anti-IL-23p19 Fab/scFv cluster 150 (Fab, V domains shown)
VH: EVQLLESGGGLVQPGGSLRLSCAASGFTFSWYGMRWVRQAPGKGLEWVSSISSSGGKTRYADSVKGRFTISRDNSKNTLYLQMNSLRAEDTAVYYCARVDQWLRSNDYWGQGTLVTVSS
VL: DIQMTQSPLSLPVTPGEPASISCRSSQSLLQNNGYNYLDWYLQKPGQSPQLLIFLGSNRASGVPDRFSGSGSGTDFTLRISKVEAEDVGVYYCMQALHAPTFGQGTRLEIR
B5: anti-IL-23p19 Fab/scFv cluster 151 (Fab, V domains shown)
VH: EVQLLESGGGLVQPGGSLRLSCAASGFTFSKYFMNWVRQAPGKGLEWVSSISSSGGATTYADSVKGRFTISRDNSKNTLYLQMNSLRAEDTAVYYCAKVGYTNWSIDNWGQGTLVTVSS
VL: DIQMTQSPATLSLSPGERATLSCRASQSVSNYLAWYQQKPGQSPRLLIYYASTRATGIPDRFSGSGSGTDFTLTIRRLEPEDFAVYYCQQYATSPWTFGQGTKVEIK
B6: anti-IL-23p19 Fab/scFv cluster 152 (Fab, V domains shown)
VH: EVQLLESGGGLVQPGGSLRLSCAASGFTFSAYWMSWVRQAPGKGLEWVSGIGPSGYTSYADSVKGRFTISRDNSKNTLYLQMNSLRAEDTAVYYCARLQVDFWSGYYFDQWGQGTLVTVSS
VL: DIQMTQSPSSLSASVGDRVAITCRASQSIDTYLNWYQQKPGKAPKLLIYAASKLEDGVPSRFSGSGTGTDFTLTIRSLQPEDFASYFCQQSYSSPGITFGPGTKVEIK
B7: anti-IL-23p19 Fab/scFv cluster 153 (Fab, V domains shown)
VH: EVQLLESGGGLVQPGGSLRLSCAASGFTFSAYRMYWVRQAPGKGLEWVSGISPSGGKTTYADSVKGRFTISRDNSKNTLYLQMNSLRAEDTAVYYCARGRGDILTAYFDYWGQGTLVTVSS
VL: DIQMTQSPSTLSASVGDTVTITCRASQSISNWVAWYQQKPGKAPKVLIYKASLLESGVPSRFSGSQSGADFTLTISSLQPEDFAVYYCQQSGTSPFTFGPGTKVDLK
B8: anti-IL-23p19 Fab/scFv cluster 156 (Fab, V domains shown)
VH: EVQLLESGGGLVQPGGSLRLSCAASGFTFSNYGMSWVRQAPGKGLEWVSRIWPSGGYTKYADSVKGRFTISRDNSKNTLYLQMNSLRAEDTAVYYCARGKGSGSFPLDYWGQGTLVTVSS
VL: QYELTQPPSASGTPGQRVTISCSGSSSNIGSNFVTWYQQLPGTAPKLLSYTNNQRPSGVPDRFSASKSGTSASLAISGLQSEDEADYYCAAWDDNLNCPVFGGGTKLTVL
B9: anti-IL-23p19 Fab/scFv cluster 157 (Fab, V domains shown)
VH: EVQLLESGGGLVQPGGSLRLSCAASGFTFSPYAMYWVRQAPGKGLEWVSYISPSGGITQYADSVKGRFTISRDNSKNTLYLQMNSLRAEDTAVYYCARGDFDWLLHHPNAFDIWGQGTMVTVSS
VL: QSELTQPPSASGTPGQRVTISCSGTLSNIGTNIVSWFQQLPGTAPKLLIYNDHRRPSGVPDRFSGSKSATSASLAISGLQSEDEADYYCAAWDDSLNGVVFGGGTKLTVL
B10: anti-IL-23p19 Fab/scFv cluster 158 (Fab, V domains shown)
VH: EVQLLESGGGLVQPGGSLRLSCAASGFTFSDYPMQWVRQAPGKGLEWVSSIWSSGGITLYADSVKGRFTISRDNSKNTLYLQMNSLRAEDTAVYYCARGTHGGGPPWYYYMDVWGKGTTVTVSS
VL: DIQMTQSPLSLPVTPGEPASISCRSSQSLLHTHGYNYLDWFLQKPGQSPQLLIYMGSNRASGVPDRFSGSGSGTDFTLKISRVEAEDVGVYYCMQARQTPYTFGQGTKLEIK
B11: anti-IL-23p19 Fab/scFv cluster 159 (Fab, V domains shown)
VH: EVQLLESGGGLVQPGGSLRLSCAASGFTFSNYSMSWVRQAPGKGLEWVSYIYSSGGPTQYADSVKGRFTISRDNSKNTLYLQMNSLRAEDMAVYYCARGGGYSYGFPLPFDYWGQGTLVTVSS
VL: DIQMTQSPLSLSVTPGEPASISCMSSQSLLYSNGYNYLDWYLQKPGQSPQLLIYLGANRASGVPDRFSGGGSGTDFRLKISRVEAEDVGVYYCVQTLQTPYTFGQGTKLEIK
B12: anti-IL-23p19 Fab/scFv cluster 160 (Fab, V domains shown)
VH: B2 VH
VL: DIQMTQSPSTLSASVGDRVTITCRASQNIGTWVVWYQQRPGKAPSLLIYKASTLESGVPSRFSGSGSGTEFTLTISSLQPDDFATYYCQQFYTSKTFGQGTKVEIK
B13: anti-IL-23p19 Fab/scFv cluster 161 (Fab, V domains shown)
VH: EVQLLESGGGLVQPGGSLRLSCAASGFTFSWYMMHWVRQAPGKGLEWVSSIGSSGGFTTYADSVKGRFTISRDNSKNTLYLQMNSLRAEDTAVYYCATGAMGSAFDIWGQGTMVTVSS
VL: B10 VL with H31Q, T32S, H33N, F41Y, M55L, K79I, E86D, A96G, R97L, Y101H
B14: anti-IL-23p19 Fab/scFv cluster 162 (Fab, V domains shown)
VH: B2 VH
VL: DIQMTQSPGTLSLSPGERATVSCRASQSVSSSYLAWYQQKPGLAPRLLIYDASNRATGIPDRFSGSGSGTDFTLTITRLEPEDFAVYYCQQYSTSPFTFGPGTKVDIK
B15: anti-IL-23p19 Fab/scFv cluster 163 (Fab, V domains shown)
VH: EVQLLESGGGLVQPGGSLRLSCAASGFTFSKYNMFWVRQAPGKGLEWVSVIGSSGGTTGYADSVKGRFTISRDNSKNTLYLQMNSLRAEDTATYYCAREKGIAAAYDYWGQGTLVTVSS
VL: DIQMTQSPGTLSLSPGERATLSCRASQSVSSNYLAWYQQKPGQAPRLLMYGASTRATGVPDRFSGSGSGTEFTLTINSLQSEDFAVYYCQQYNYWPRTFGTGTKVEIK
B16: anti-IL-23p19 Fab/scFv cluster 164 (Fab, V domains shown)
VH: EVQLLESGGGLVQPGGSLRLSCAASGFTFSLYKMMWVRQAPGKGLEWVSSIYSSGGRTNYADSVKGRFTISRDNSKNTLYLQMNSLRAEDTAVYYCATDVTWWPRSYWGQGTLVTVSS
VL: DIQMTQSPGTLSLSPGERATLSCWASQSVKSNYLAWYQQKPGQAPRLLIYGASSRATGIPDRFSGSGSGTDFTLTISRLEPEDFAVYYCQQYGSSPRTFGQGTKVEIK

The binders below were run against human p19 subunit of IL-23 (human) (UniProt Q9NPF7) (assay: phage display screening).

binding, binds:
B1
B2
B3
B4
B5
B6
B7
B8
B9
B10
B11
B12
B13
B14
B15
B16
